Assay results from PubChem BioAssay AID248 (DTP/NCI, 2004).
The list shows only some results of the screen, not a fair sample: it is rich in T/C values a quarter to a half above the control, in often repeated tests (any T/C) and in doses without a T/C. Other doses and runs of a compound stand elsewhere. T/C is the treated group as % of the vehicle group. Some doses have a count of surviving animals in place of a T/C: the source holds a T/C of zero for them, seemingly a mark for toxic or unscored doses. Some survivor counts are full or nearly so, which does not show that the dose was tolerated: survival well below the control is almost never listed, so the zero probably covers shortened survival too. Survivors were counted at the toxicity check, usually on the fifth day, unless a day is given; later deaths do not show. Schedules are NCI's codes, read here as Q, the interval in days (D) or hours (H), X, the number of doses. Some schedules carry Z or #; the key to these is not given. Some entries were tested several times; the results are listed from low to high. Where survival is the endpoint, the PubChem record calls one and a half times the control and up active, and a quarter to a half above the control has no call in these data; cut-offs in other NCI protocols can differ. Signs of the kind (2×) count equal records among those shown.

Test system: L1210 leukemia ip in BDF1 mice, survival T/C
Assay: NCI In Vivo Anticancer Drug Screen. Data for tumor model L1210 Leukemia (intraperitoneal) in B6D2F1 (BDF1) mice
Conditions: higher T/C = longer survival
[1] = T/C endpoint: mean survival time, dose: 200.0 mg/kg/injection, schedule: Q01DX001 (ip), vehicle: saline
[2] = T/C endpoint: mean survival time, dose: 400.0 mg/kg/injection, schedule: Q01DX001 (ip), vehicle: saline
[3] = T/C endpoint: mean survival time, dose: 400.0 mg/kg/injection, schedule: Q01DX001 (ip), vehicle: saline with Tween-80
[4] = T/C endpoint: mean survival time, dose: 400.0 mg/kg/injection, schedule: Q04DX003 (ip), vehicle: saline with Tween-80
[5] = T/C endpoint: mean survival time, dose: 400.0 mg/kg/injection, schedule: Q04DX002 (ip), vehicle: Klucel (hydroxypropylcellulose) (HPC)
[6] = T/C endpoint: mean survival time, dose: 400.0 mg/kg/injection, schedule: Q01DX009 (ip), vehicle: carboxymethylcellulose (CMC)
[7] = T/C endpoint: mean survival time, dose: 400.0 mg/kg/injection, schedule: Q04DX003 (ip), vehicle: Klucel (hydroxypropylcellulose) (HPC)

## O=C(C#Cc1ccccc1)c1ccccc1
T/C endpoint: mean survival time, dose: 40.0 mg/kg/injection, schedule: Q01DX001 (ip), vehicle: Klucel (hydroxypropylcellulose) (HPC)
  survivor count: 3 of 6
T/C endpoint: mean survival time, dose: 80.0 mg/kg/injection, schedule: Q01DX001 (ip), vehicle: Klucel (hydroxypropylcellulose) (HPC)
  survivor count: 2 of 6
T/C endpoint: mean survival time, dose: 100.0 mg/kg/injection, schedule: Q01DX001 (ip), vehicle: Klucel (hydroxypropylcellulose) (HPC)
  survivor count: 1 of 6
T/C endpoint: mean survival time, dose: 200.0 mg/kg/injection, schedule: Q01DX001 (ip), vehicle: Klucel (hydroxypropylcellulose) (HPC)
  survivor count: 0 of 6
T/C endpoint: mean survival time, dose: 400.0 mg/kg/injection, schedule: Q01DX001 (ip), vehicle: Klucel (hydroxypropylcellulose) (HPC)
  survivor count: 0 of 6

## c1ccc(C(CCN2CCCC2)c2ccccn2)cc1 (stereo not given)
T/C endpoint: mean survival time, dose: 100.0 mg/kg/injection, schedule: Q01DX Z (ip), vehicle: saline
  survivor count: 0 of 6

## C=C1CC[N+]2(CC(=O)c3ccc(Br)cc3)CCCC12 (stereo not given)
T/C endpoint: mean survival time, dose: 100.0 mg/kg/injection, schedule: Q01DX001 (ip), vehicle: saline
  survivor count: 2 of 6
[1]
  survivor count: 1 of 6
[2]
  survivor count: 0 of 6

## O=C(O)c1ccc(CCc2cccnc2)cc1
[3]
  survivor count: 2 of 6

## C=CCOc1ccc(Cl)cc1
[4]
  survivor count: 1 of 3

## Clc1ccc2nc(CI)c(CI)nc2c1
T/C endpoint: mean survival time, dose: 25.0 mg/kg/injection, schedule: Q01DX009 (ip), vehicle: acetone
  survivor count: 4 of 6
T/C endpoint: mean survival time, dose: 50.0 mg/kg/injection, schedule: Q04DX003 (ip), vehicle: acetone
  survivor count: 1 of 6
T/C endpoint: mean survival time, dose: 100.0 mg/kg/injection, schedule: Q04DX003 (ip), vehicle: saline with Tween-80
  survivor count: 6 of 6
T/C endpoint: mean survival time, dose: 200.0 mg/kg/injection, schedule: Q04DX003 (ip), vehicle: saline with Tween-80
  survivor count: 6 of 6
[4]
  survivor count: 0 of 6

## N=c1ccccn1CC(Cl)COc1ccccc1 (stereo not given)
[1]
  survivor count: 1 of 4
[2]
  survivor count: 0 of 4

## NSc1nc2ccccc2s1
T/C endpoint: mean survival time, dose: 400.0 mg/kg/injection, schedule: Q01DX009 (ip), vehicle: saline with Tween-80
  survivor count: 3 of 6

## S=C1N(C2CCCCC2)CCN1C1CCCCC1
T/C endpoint: mean survival time, dose: 200.0 mg/kg/injection, schedule: Q04DX002 (ip), vehicle: Klucel (hydroxypropylcellulose) (HPC)
  survivor count: 3 of 3
[5]
  survivor count: 3 of 3

## CCOC(=O)CNC(=O)Oc1ccc2c(C)cc(=O)oc2c1
T/C endpoint: mean survival time, dose: 100.0 mg/kg/injection, schedule: Q01DX001 (ip), vehicle: carboxymethylcellulose (CMC)
  T/C: 95, 98, 100, 101 % of control
T/C endpoint: mean survival time, dose: 100.0 mg/kg/injection, schedule: Q01DX009 (ip), vehicle: carboxymethylcellulose (CMC)
  survivor count: 6 of 6
T/C endpoint: mean survival time, dose: 200.0 mg/kg/injection, schedule: Q01DX001 (ip), vehicle: carboxymethylcellulose (CMC)
  T/C: 93, 95, 96, 101 % of control
T/C endpoint: mean survival time, dose: 400.0 mg/kg/injection, schedule: Q01DX001 (ip), vehicle: carboxymethylcellulose (CMC)
  T/C: 97, 103, 104 % of control (2×)
[6]
  survivor count: 3 of 6

## NC(=S)N/N=C/c1ccncc1
T/C endpoint: mean survival time, dose: 400.0 mg/kg/injection, schedule: Q04DX003 (ip), vehicle: saline
  survivor count: 1 of 6

## CC(C)/C=C(\C#N)C(=O)O
T/C endpoint: mean survival time, dose: 12.5 mg/kg/injection, schedule: Q01DX009 (ip), vehicle: Klucel (hydroxypropylcellulose) (HPC)
  survivor count: 3 of 6
T/C endpoint: mean survival time, dose: 100.0 mg/kg/injection, schedule: Q04DX003 (ip), vehicle: Klucel (hydroxypropylcellulose) (HPC)
  survivor count: 0 of 6
T/C endpoint: mean survival time, dose: 200.0 mg/kg/injection, schedule: Q04DX003 (ip), vehicle: Klucel (hydroxypropylcellulose) (HPC)
  survivor count: 0 of 6
[7]
  survivor count: 0 of 6

## CC1c2c(c(-c3ccccc3)c3ccccc3c2-c2ccccc2)S1(=O)=O (stereo not given)
[5]
  T/C: 125 % of control

## CC(=O)C1=CC(=O)c2ccccc2C1=O
T/C endpoint: mean survival time, dose: 100.0 mg/kg/injection, schedule: Q01DX001 (ip), vehicle: water
  survivor count: 0 of 6
T/C endpoint: mean survival time, dose: 200.0 mg/kg/injection, schedule: Q01DX001 (ip), vehicle: water
  survivor count: 0 of 6
T/C endpoint: mean survival time, dose: 400.0 mg/kg/injection, schedule: Q01DX001 (ip), vehicle: water
  survivor count: 0 of 6

## CCC(O)C[As](=O)(O)c1cccc(Cl)c1 (stereo not given)
T/C endpoint: mean survival time, dose: 12.5 mg/kg/injection, schedule: Q01DX001 (ip), vehicle: saline with Tween-80
  survivor count: 2 of 6
T/C endpoint: mean survival time, dose: 12.5 mg/kg/injection, schedule: Q01DX001 (ip), vehicle: saline
  survivor count: 4 of 6
T/C endpoint: mean survival time, dose: 25.0 mg/kg/injection, schedule: Q01DX001 (ip), vehicle: saline with Tween-80
  survivor count: 0 of 6
T/C endpoint: mean survival time, dose: 100.0 mg/kg/injection, schedule: Q01DX001 (ip), vehicle: saline with Tween-80
  survivor count: 0 of 6
T/C endpoint: mean survival time, dose: 200.0 mg/kg/injection, schedule: Q01DX001 (ip), vehicle: saline with Tween-80
  survivor count: 0 of 6
[3]
  survivor count: 0 of 6

## CC/C(=C(/CC)c1ccc(O)cc1)c1ccc(O)cc1
[6]
  survivor count: 9 of 10
T/C endpoint: median survival time, dose: 128.0 mg/kg/injection, schedule: Q03HX008 (ip), vehicle: saline with Tween-80
  survivor count: 0 of 10
T/C endpoint: median survival time, dose: 128.0 mg/kg/injection, schedule: Q03HX016 (ip), vehicle: saline with Tween-80
  survivor count: 0 of 10
T/C endpoint: median survival time, dose: 128.0 mg/kg/injection, schedule: Q03HX024 (ip), vehicle: saline with Tween-80
  survivor count: 0 of 10
T/C endpoint: median survival time, dose: 256.0 mg/kg/injection, schedule: Q01DX009 (ip), vehicle: saline with Tween-80
  survivor count: 7 of 10
T/C endpoint: median survival time, dose: 256.0 mg/kg/injection, schedule: Q03HX008 (ip), vehicle: saline with Tween-80
  survivor count: 0 of 10
T/C endpoint: median survival time, dose: 256.0 mg/kg/injection, schedule: Q03HX016 (ip), vehicle: saline with Tween-80
  survivor count: 0 of 10
T/C endpoint: median survival time, dose: 512.0 mg/kg/injection, schedule: Q01DX009 (ip), vehicle: saline with Tween-80
  survivor count: 0 of 10
T/C endpoint: median survival time, dose: 512.0 mg/kg/injection, schedule: Q04DX003 (ip), vehicle: saline with Tween-80
  survivor count: 3 of 10
T/C endpoint: median survival time, dose: 1024.0 mg/kg/injection, schedule: Q01DX001 (ip), vehicle: saline with Tween-80
  survivor count: 2 of 10
T/C endpoint: median survival time, dose: 1024.0 mg/kg/injection, schedule: Q04DX003 (ip), vehicle: saline with Tween-80
  survivor count: 5 of 10
T/C endpoint: median survival time, dose: 2048.0 mg/kg/injection, schedule: Q01DX001 (ip), vehicle: saline with Tween-80
  survivor count: 1 of 10

## CN=C(NC)c1ccc(NC(=O)c2ccc(C(=O)Nc3ccc(C(=NC)NC)c(OC)c3)c(Cl)c2)cc1OC
T/C endpoint: mean survival time, dose: 1.9 mg/kg/injection, schedule: Q01DX Z (ip), vehicle: saline
  survivor count: 3 of 6
T/C endpoint: mean survival time, dose: 2.9 mg/kg/injection, schedule: Q01DX Z (ip), vehicle: saline
  survivor count: 0 of 6
T/C endpoint: mean survival time, dose: 4.4 mg/kg/injection, schedule: Q01DX Z (ip), vehicle: saline
  survivor count: 0 of 6 and 3 of 6
T/C endpoint: mean survival time, dose: 6.6 mg/kg/injection, schedule: Q01DX Z (ip), vehicle: saline
  survivor count: 0 of 6
T/C endpoint: mean survival time, dose: 10.0 mg/kg/injection, schedule: Q01DX Z (ip), vehicle: saline
  survivor count: 0 of 6
T/C endpoint: mean survival time, dose: 15.0 mg/kg/injection, schedule: Q01DX Z (ip), vehicle: saline
  survivor count: 0 of 6
T/C endpoint: mean survival time, dose: 30.0 mg/kg/injection, schedule: Q01DX Z (ip), vehicle: saline
  survivor count: 0 of 6
T/C endpoint: mean survival time, dose: 60.0 mg/kg/injection, schedule: Q01DX Z (ip), vehicle: saline
  survivor count: 0 of 6
T/C endpoint: mean survival time, dose: 120.0 mg/kg/injection, schedule: Q01DX Z (ip), vehicle: saline
  survivor count: 0 of 6

## [O-][n+]1ccccc1-c1ccccc1
[5]
  survivor count: 1 of 3

## O=C(CBr)c1ccc(-c2ccccc2)cc1
T/C endpoint: mean survival time, dose: 50.0 mg/kg/injection, schedule: Q01DX009 (ip), vehicle: Klucel (hydroxypropylcellulose) (HPC)
  survivor count: 3 of 6
T/C endpoint: mean survival time, dose: 100.0 mg/kg/injection, schedule: Q01DX009 (ip), vehicle: Klucel (hydroxypropylcellulose) (HPC)
  survivor count: 1 of 6
T/C endpoint: mean survival time, dose: 150.0 mg/kg/injection, schedule: Q01DX009 (ip), vehicle: Klucel (hydroxypropylcellulose) (HPC)
  survivor count: 0 of 6
[7]
  survivor count: 1 of 6

## COc1ccccc1[N+](C)(C)C
[1]
  survivor count: 0 of 4
[2]
  survivor count: 0 of 4

## Cc1ccnc(/C=N/NC(N)=S)c1
T/C endpoint: mean survival time, dose: 400.0 mg/kg/injection, schedule: Q04DX002 (ip), vehicle: saline
  survivor count: 0 of 3
